# Assay results published in PubChem BioAssay AID2685 (National Center for Advancing Translational Sciences (NCATS), 2010).
# The other results are listed elsewhere or left out. These are further read-outs of the screen, such as a control signal, another cell line or another target. No call is given for them. Most of these compounds were active or inconclusive in the main read-out, so they are no random draw. The note in brackets gives the kind of curve behind each potency; many fits are weak.
# Test: qHTS Assay for Lipid Storage Modulators in Drosophila S3 Cells;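 as to cell number change: cells counted by Cell Tracker Red CMTPX staining in the red channel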
# Conditions: BODIPY lipid droplet fluorescence, 18-24 h; for cell number change: measured here: cell count max response, cells fed with added oleic acid
# Outline: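 Drosophila S3 cells got compounds at several concentrations plus oleic acid (400 uM solution). Laser-scanning cytometry with 488 nm excitation read lipid droplets at 500-530 nm and cells at 575-640 nm. Percent activity was relative to 20 uM Triacsin C.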
# [1] = measured here: lipid fluorescence (Fed channel) AC50, cells fed with added oleic acid
# [2] = measured here: cell number channel AC50, cells fed with added oleic acid
compound,measurement,setting,value
O=C(c1cc2nc(-c3cccs3)cc(C(F)(F)F)n2n1)N1CCCc2ccccc21,cell number change,,-11%
same,AC50,[1],"6.51 µM [falling, single point]"
CCN(C(=O)CCS(=O)(=O)c1cccc2nonc12)c1ccc(F)cc1,cell number change,,18.3%
same,AC50,[1],"6.51 µM [falling, partial curve]"
COc1ccccc1N1CCN(C(=O)c2ccc(CN3CCOCC3)cc2)CC1,cell number change,,47.8%
C/C=C/c1ccccc1OCc1ccc(C(=O)O)o1,cell number change,,-16.1%
same,AC50,[2],"1.16 µM [falling, full curve]"
Cn1c(-c2cc(Cl)ccc2O)nc2c1c(=O)[nH]c(=O)n2Cc1ccccc1,cell number change,,25.4%
same,AC50,[1],"29.1 µM [rising, single point]"
Cc1cc(C)cc(CSc2ccc(S(=O)(=O)N3CCCC3)cn2)c1,cell number change,,-7.51%
same,AC50,[1],"4.61 µM [rising, partial curve, poor fit]"
Cn1ccnc1Sc1ccc(C=O)cc1[N+](=O)[O-],cell number change,,-17.2%
same,AC50,[2],"0.116 µM [falling, full curve, poor fit]"
O=C(CN1CCN(c2ccccc2F)CC1)c1ccc2cc[nH]c2c1,cell number change,,-0.506%
same,AC50,[1],"3.26 µM [rising, single point]"
COc1ccc(/C=N/NC(=O)c2ccccc2Cl)cc1CSc1nc2ccccc2s1,cell number change,,110%
same,AC50,[2],"0.651 µM [rising, full curve, poor fit]"
same,AC50,[1],"0.92 µM [rising, full curve]"
COc1cccc(CNS(=O)(=O)c2ccc3c(c2)CC(C)N3C(=O)C2CCC2)c1 (stereo not given),cell number change,,-9.92%
same,AC50,[1],"4.11 µM [falling, single point]"
CCCN(CCC)CCNC(=O)C(NS(=O)(=O)c1ccc2c(c1)CCC(=O)N2)c1ccccc1 (stereo not given),cell number change,,-29.5%
COc1cc(/C=C/C(=O)OCC(=O)N2CCCc3ccccc32)ccc1OC(F)F,cell number change,,-6.08%
same,AC50,[1],"3.66 µM [falling, full curve, poor fit]"
COc1ccc(CNC(=O)CCc2ccc(S(=O)(=O)N3CCCCCC3)cc2)cc1,cell number change,,-47.1%
same,AC50,[2],"16.4 µM [falling, single point]"
same,AC50,[1],"20.6 µM [falling, single point]"
O=C(OCC#CCSc1nnc(-c2cccc3ccccc23)o1)c1ccc(F)cc1,cell number change,,49.4%
same,AC50,[2],"0.231 µM [rising, full curve, poor fit]"
same,AC50,[1],"0.366 µM [rising, full curve]"
O=c1cc(-c2ccc(Br)cc2)[nH][nH]1,AC50,[2],"0.13 µM [falling, full curve, poor fit]"
COC(=O)[C@@]12CCCCN1[C@H](c1ccc(-c3cc(C(C)=O)cs3)c(OC)c1)[C@H]1C(=O)N(C)C(=O)[C@H]12,cell number change,,19.6%
same,AC50,[2],"0.231 µM [falling, full curve, poor fit]"
O=C(Cn1ccc2cc(S(=O)(=O)N3CCCC3)ccc21)NCc1ccccc1,cell number change,,-5.73%
same,AC50,[1],"0.0366 µM [rising, full curve, poor fit]"
Cc1ccc(OS(=O)(=O)c2c(C)nn(C)c2Cl)c(C)c1,AC50,[1],"0.82 µM [rising, single point]"
Cc1ccc(C(=O)NC2CC(C)(C)NC(C)(C)C2)cc1,cell number change,,17.9%
same,AC50,[1],"29.1 µM [rising, single point]"
Cc1ccc(NC2CCCN(C(=O)c3cnsn3)C2)cc1C (stereo not given),cell number change,,66.2%
same,AC50,[2],"18.4 µM [rising, partial curve]"
COc1ccc(C(C)(C)C)cc1NC(=O)CCN1C(=O)C2CCCCC2C1=O (stereo not given),cell number change,,-43.7%
same,AC50,[2],"20.6 µM [falling, partial curve, poor fit]"
same,AC50,[1],"1.03 µM [falling, full curve]"
CCN(CC)Cc1c(C(=O)N/N=C/c2cccc(OCc3ccc(F)cc3)c2)nnn1-c1nonc1N,cell number change,,23.7%
same,AC50,[1],"29.1 µM [falling, single point]"
COC(=O)c1ccc(NC(=O)COc2ccc3c(c2)OCO3)cc1,cell number change,,6.58%
O=C(O)Cn1c(=O)c2c3c(sc2n(Cc2ccccc2F)c1=O)CCCC3,cell number change,,10.1%
same,AC50,[1],"3.26 µM [rising, partial curve, poor fit]"
O=C(NCC1CCCO1)C(c1cccs1)N(C(=O)Cn1nnc(-c2cccs2)n1)C1CCCC1 (stereo not given),cell number change,,-16.6%
same,AC50,[1],"25.9 µM [falling, partial curve]"
O=C(NC(=S)Nc1ccccn1)c1cc(-c2ccccc2)nc2ccccc12,cell number change,,13%
same,AC50,[2],"2.31 µM [rising, partial curve]"
same,AC50,[1],"2.06 µM [rising, partial curve]"
O=C(NCc1ccc(Cl)cc1)C1CC(O)CN1S(=O)(=O)c1ccc(Cl)cc1 (stereo not given),cell number change,,1.32%
same,AC50,[1],"22.4 µM [falling, single point]"
COc1ccc(C)cc1NC(=O)C(NCC(O)c1ccccc1)c1ccccc1 (stereo not given),cell number change,,0.709%
same,AC50,[1],"29.1 µM [rising, single point]"
COc1ccc(NC(=O)COc2cc(O)c3c(c2)OC(C)(C)CC3=O)cc1,cell number change,,17.2%
Cc1nnc(SCC(=O)N2CC(=O)Nc3ccccc32)n1-c1ccccc1,cell number change,,0.897%
same,AC50,[1],"29.1 µM [falling, single point]"
CCOc1ccc(S(=O)(=O)N(CC(=O)NCc2cccnc2)c2ccc(C)cc2)cc1,cell number change,,5.88%
same,AC50,[1],"2.91 µM [falling, single point]"
CC1CCCCN1C(=O)C1CCCCN1S(=O)(=O)c1cccc([N+](=O)[O-])c1 (stereo not given),cell number change,,-31.4%
same,AC50,[2],"4.61 µM [falling, full curve, poor fit]"
same,AC50,[1],"32.6 µM [falling, partial curve, poor fit]"
CC1CC(C)CN(CC(=O)N2CCc3[nH]c4ccccc4c3C2)C1 (stereo not given),AC50,[1],"18.4 µM [falling, single point]"
Cc1cc(C)c(NC(=O)CSc2nnc(Cc3cccn3C)n2-c2ccc(F)cc2)c(C)c1,cell number change,,-8.23%
same,AC50,[1],"16.4 µM [falling, single point]"
Cc1ccc(NC(=O)C2CCN(C(=O)c3ccccc3C)CC2)cc1,cell number change,,22.4%
O=C(Nc1cccc2ccccc12)c1cnccn1,AC50,[1],"6.51 µM [falling, single point]"
CCc1occc(=O)c1Oc1cc(NN2CCCCC2)c([N+](=O)[O-])cc1[N+](=O)[O-],cell number change,,34.6%
same,AC50,[2],"7.31 µM [rising, full curve, poor fit]"
same,AC50,[1],"29.1 µM [rising, single point]"
CC(=O)N(C(C)=O)c1ncc2c([nH]c3ccccc32)c1C#N,AC50,[2],"0.291 µM [rising, partial curve, poor fit]"
same,AC50,[1],"0.58 µM [rising, single point]"
CCOc1ccc(C(=O)N/N=C/c2ccc(SC)cc2)cc1,cell number change,,5.17%
same,AC50,[1],"0.517 µM [rising, full curve, poor fit]"
CCc1ccc(NC(=S)N2CCN(S(=O)(=O)c3ccccc3)CC2)cc1,cell number change,,21.1%
same,AC50,[2],"0.164 µM [rising, full curve, poor fit]"
same,AC50,[1],"6.51 µM [rising, partial curve, poor fit]"
COc1ccc(C2C(C(=O)Nc3cccc(OC)c3)c3ccccc3C(=O)N2C)cc1 (stereo not given),AC50,[1],"6.51 µM [rising, partial curve]"
Clc1ncnc2c1oc1ccccc12,cell number change,,-50.3%
same,AC50,[2],"29.1 µM [falling, single point]"
same,AC50,[1],"1.16 µM [falling, full curve]"
Cc1cc(C(=O)CN2CCN(CC(=O)Nc3cccc(F)c3)CC2)c(C)n1C1CC1,cell number change,,-12.2%
same,AC50,[2],"0.231 µM [falling, full curve, poor fit]"
same,AC50,[1],"18.4 µM [falling, partial curve, poor fit]"
Cc1ccc(OCC(=O)Nc2cccc3nsnc23)c(C)c1,cell number change,,50%
same,AC50,[2],"9.2 µM [rising, partial curve]"
same,AC50,[1],"1.64 µM [rising, partial curve]"
CCOC(=O)COc1cnc2ccccc2n1,cell number change,,-10.8%
same,AC50,[1],"29.1 µM [falling, single point]"
Cc1ccc(S(=O)(=O)c2c(O)c3ccc(C(=O)O)cc3[nH]c2=O)cc1,AC50,[1],"10.3 µM [falling, partial curve]"
COc1ccccc1CC(=O)OC(C)C(=O)Nc1ccc(S(=O)(=O)N2CCCCC2)cc1 (stereo not given),cell number change,,18.5%
same,AC50,[1],"23.1 µM [falling, partial curve, poor fit]"
COc1ccccc1-n1nc(C(=O)O)c2ccccc2c1=O,cell number change,,-0.415%
same,AC50,[2],"6.51 µM [falling, single point]"
COc1cccc(C(=O)Nc2nnc(S(=O)(=O)N(C)Cc3ccccc3)s2)c1,cell number change,,-30%
same,AC50,[2],"13 µM [falling, partial curve, poor fit]"
CC1CCCN(c2nc3c(c(=O)n(C)c(=O)n3C)n2Cc2ccccc2)C1 (stereo not given),cell number change,,-9.48%
same,AC50,[1],"0.184 µM [falling, full curve, poor fit]"
CNC(=O)/C(C#N)=c1\s/c(=C/C(=O)OC)c(=O)n1-c1ccccc1,cell number change,,-12.3%
same,AC50,[1],"7.31 µM [rising, partial curve, poor fit]"
COc1cc(NC(=O)COC(=O)c2n[nH]c3ccccc23)c(C)cc1[N+](=O)[O-],cell number change,,14.4%
same,AC50,[1],"0.631 µM [rising, full curve, poor fit]"
CN(C)S(=O)(=O)c1ccc(NC(=O)C2CC3C=CC2C3)cc1 (stereo not given),AC50,[1],"0.00461 µM [falling, full curve, poor fit]"
COc1ccc(-c2nc(-c3ccccc3)[nH]c(=O)c2C#N)cc1,cell number change,,-34%
same,AC50,[2],"32.6 µM [falling, single point]"
C=CCn1c(SC2CCOC2=O)nc2sc(CC)cc2c1=O (stereo not given),cell number change,,18.2%
CCN(CC)c1ccc(/C=N/NC(=O)c2cccc(S(=O)(=O)N3CCOCC3)c2)c(O)c1,cell number change,,-37.6%
same,AC50,[1],"29.1 µM [falling, single point]"

# An excerpt of these results, as tab-separated lines.
compound	measurement	setting	value
O=C(CN1CCN(c2ccccc2F)CC1)c1ccc2cc[nH]c2c1	cell number change		-0.506%
same	AC50	[1]	3.26 µM [rising, single point]
COc1ccc(/C=N/NC(=O)c2ccccc2Cl)cc1CSc1nc2ccccc2s1	cell number change		110%
same	AC50	[2]	0.651 µM [rising, full curve, poor fit]
same	AC50	[1]	0.92 µM [rising, full curve]
COc1cccc(CNS(=O)(=O)c2ccc3c(c2)CC(C)N3C(=O)C2CCC2)c1 (stereo not given)	cell number change		-9.92%
same	AC50	[1]	4.11 µM [falling, single point]

# Quoted from the listing (2 entries):
compound,measurement,setting,value
Cn1c(-c2cc(Cl)ccc2O)nc2c1c(=O)[nH]c(=O)n2Cc1ccccc1,AC50,[1],"29.1 µM [rising, single point]"
Cc1cc(C)cc(CSc2ccc(S(=O)(=O)N3CCCC3)cn2)c1,cell number change,,-7.51%
